Results are given in words; binding and its absence hold for the method and conditions named. In cells and extracts the contact can be indirect. Some entries that bind do so weakly or less than the wild type.
T1: Elongation factor Tu GTP binding domain containing 2, from plasmid (UniProt Q15029)
T1 sequence: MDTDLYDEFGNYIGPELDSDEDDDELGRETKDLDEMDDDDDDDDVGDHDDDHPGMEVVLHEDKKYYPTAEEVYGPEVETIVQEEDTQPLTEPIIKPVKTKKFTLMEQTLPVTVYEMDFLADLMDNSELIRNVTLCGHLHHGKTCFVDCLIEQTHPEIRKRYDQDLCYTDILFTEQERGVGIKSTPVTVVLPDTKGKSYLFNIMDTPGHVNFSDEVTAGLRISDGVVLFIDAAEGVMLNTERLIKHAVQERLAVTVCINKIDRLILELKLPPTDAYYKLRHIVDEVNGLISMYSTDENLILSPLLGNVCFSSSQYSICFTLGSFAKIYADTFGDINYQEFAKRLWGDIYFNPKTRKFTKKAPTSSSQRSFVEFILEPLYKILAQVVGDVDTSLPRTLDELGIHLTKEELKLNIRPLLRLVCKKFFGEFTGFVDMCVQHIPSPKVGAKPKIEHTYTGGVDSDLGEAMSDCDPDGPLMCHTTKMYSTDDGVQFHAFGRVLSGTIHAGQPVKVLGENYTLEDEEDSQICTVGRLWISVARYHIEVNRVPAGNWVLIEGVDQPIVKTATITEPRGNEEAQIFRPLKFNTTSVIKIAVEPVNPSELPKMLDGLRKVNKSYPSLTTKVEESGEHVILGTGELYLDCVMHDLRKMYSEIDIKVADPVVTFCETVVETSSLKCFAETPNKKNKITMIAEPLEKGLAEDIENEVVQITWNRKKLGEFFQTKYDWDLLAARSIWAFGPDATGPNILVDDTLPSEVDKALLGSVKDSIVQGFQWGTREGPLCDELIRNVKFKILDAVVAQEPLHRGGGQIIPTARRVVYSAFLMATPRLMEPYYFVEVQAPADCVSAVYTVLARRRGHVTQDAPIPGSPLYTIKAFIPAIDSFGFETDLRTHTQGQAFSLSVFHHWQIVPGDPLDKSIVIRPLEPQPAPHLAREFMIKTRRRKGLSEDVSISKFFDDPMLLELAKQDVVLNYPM


Molecular target: T1, Elongation factor Tu GTP binding domain containing 2, from plasmid
Test: co-IP; 293T cells co-transfected with two plasmids (10 ug each) for 48 h; weak strength RIPA lysis buffer, agarose A/G beads, Western blot

Row | binding | Binder
1 | binds | YTH domain family protein 3, from plasmid (protein, UniProt Q7Z739 1-585) MSATSVDQRPKGQGNKVSVQNGSIHQKDAVNDDDFEPYLSSQTNQSNSYPPMSDPYMPSYYAPSIGFPYSLGEAAWSTAGDQPMPYLTTYGQMSNGEHHYIPDGVFSQPGALGNTPPFLGQHGFNFFPGNADFSTWGTSGSQGQSTQSSAYSSSYGYPPSSLGRAITDGQAGFGNDTLSKVPGISSIEQGMTGLKIGGDLTAAVTKTVGTALSSSGMTSIATNSVPPVSSAAPKPTSWAAIARKPAKPQPKLKPKGNVGIGGSAVPPPPIKHNMNIGTWDEKGSVVKAPPTQPVLPPQTIIQQPQPLIQPPPLVQSQLPQQQPQPPQPQQQQGPQPQAQPHQVQPQQQQLQNRWVAPRNRGAGFNQNNGAGSENFGLGVVPVSASPSSVEVHPVLEKLKAINNYNPKDFDWNLKNGRVFIIKSYSEDDIHRSIKYSIWCSTEHGNKRLDAAYRSLNGKGPLYLLFSVNGSGHFCGVAEMKSVVDYNAYAGVWSQDKWKGKFEVKWIFVKDVPNNQLRHIRLENNDNKPVTNSRDTQEVPLEKAKQVLKIIATFKHTTSIFDDFAHYEKRQEEEEAMRRERNRNKQ
2 | binds | Phosphofructokinase, liver type, from plasmid (enzyme, UniProt P17858 1-780) MAAVDLEKLRASGAGKAIGVLTSGGDAQGMNAAVRAVTRMGIYVGAKVFLIYEGYEGLVEGGENIKQANWLSVSNIIQLGGTIIGSARCKAFTTREGRRAAAYNLVQHGITNLCVIGGDGSLTGANIFRSEWGSLLEELVAEGKISETTARTYSHLNIAGLVGSIDNDFCGTDMTIGTDSALHRIMEVIDAITTTAQSHQRTFVLEVMGRHCGYLALVSALASGADWLFIPEAPPEDGWENFMCERLGETRSRGSRLNIIIIAEGAIDRNGKPISSSYVKDLVVQRLGFDTRVTVLGHVQRGGTPSAFDRILSSKMGMEAVMALLEATPDTPACVVTLSGNQSVRLPLMECVQMTKEVQKAMDDKRFDEATQLRGGSFENNWNIYKLLAHQKPPKEKSNFSLAILNVGAPAAGMNAAVRSAVRTGISHGHTVYVVHDGFEGLAKGQVQEVGWHDVAGWLGRGGSMLGTKRTLPKGQLESIVENIRIYGIHALLVVGGFEAYEGVLQLVEARGRYEELCIVMCVIPATISNNVPGTDFSLGSDTAVNAAMESCDRIKQSASGTKRRVFIVETMGGYCGYLATVTGIAVGADAAYVFEDPFNIHDLKVNVEHMTEKMKTDIQRGLVLRNEKCHDYYTTEFLYNLYSSEGKGVFDCRTNVLGHLQQGGAPTPFDRNYGTKLGVKAMLWLSEKLREVYRKGRVFANAPDSACVIGLKKKAVAFSPVTELKKDTDFEHRMPREQWWLSLRLMLKMLAQYRISMAAYVSGELEHVTRRTLSMDKGF
